Results reported in publication PMC10279913.
Results are given in words; binding and its absence hold for the method and conditions named. In cells and extracts the contact can be indirect. Binding calls can cover weak binding; strength is not graded here. Where a sequence is shown, tags or fusion partners need not be part of it.

The chains behind the UniProt entries cited, without tags or fusion partners. Where a name states a change or a piece, a line headed by the entry shows the natural chain unless it says otherwise.
UniProt Q9N536: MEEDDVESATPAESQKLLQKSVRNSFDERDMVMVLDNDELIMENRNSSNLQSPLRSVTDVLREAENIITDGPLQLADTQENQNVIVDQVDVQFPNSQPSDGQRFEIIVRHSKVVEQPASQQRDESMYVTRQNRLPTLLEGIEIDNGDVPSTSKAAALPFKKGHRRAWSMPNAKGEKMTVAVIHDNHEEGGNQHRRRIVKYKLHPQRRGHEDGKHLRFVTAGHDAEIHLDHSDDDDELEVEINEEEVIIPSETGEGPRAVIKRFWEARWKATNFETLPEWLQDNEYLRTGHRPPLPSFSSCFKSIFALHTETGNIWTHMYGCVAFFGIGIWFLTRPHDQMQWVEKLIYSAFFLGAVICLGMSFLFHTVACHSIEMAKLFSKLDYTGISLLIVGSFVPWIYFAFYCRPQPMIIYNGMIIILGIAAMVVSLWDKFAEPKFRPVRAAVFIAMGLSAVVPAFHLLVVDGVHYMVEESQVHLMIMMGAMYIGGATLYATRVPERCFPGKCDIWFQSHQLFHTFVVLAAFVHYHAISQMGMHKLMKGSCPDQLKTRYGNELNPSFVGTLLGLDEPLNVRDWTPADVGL

T1: MYC::HPO-8 (C. elegans) (UniProt O17040)
T1 sequence: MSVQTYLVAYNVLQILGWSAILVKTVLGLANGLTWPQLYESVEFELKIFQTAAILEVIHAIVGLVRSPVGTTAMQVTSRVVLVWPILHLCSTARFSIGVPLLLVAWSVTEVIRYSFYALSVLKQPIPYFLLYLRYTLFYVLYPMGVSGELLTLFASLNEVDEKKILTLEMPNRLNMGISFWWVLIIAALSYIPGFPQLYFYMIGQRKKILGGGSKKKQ


How the values were obtained:
MYC::HPO-8 (C. elegans) = molecular target: T1, MYC::HPO-8 (C. elegans); test: co-IP; MYC IP from worm lysate (800 μg) with Myc-Trap magnetic agarose beads, 75 min, 4 °C; 10 mM Tris pH 7.5, 150 mM NaCl, 5 mM EDTA, 0.5% NP40; Western blot
ACS-4::FLAG (C. elegans) = test: co-IP; FLAG IP from worm lysate (1000 μg) with anti-FLAG M2 magnetic beads, overnight, 4 °C; 10 mM Tris pH 7.5, 150 mM NaCl, 5 mM EDTA, 0.5% NP40; Western blot
HA::PAQR-2 (C. elegans) = HA::PAQR-2 (C. elegans) (UniProt Q9N536); test: co-IP; HA IP from worm lysate (1000 μg) with HA-Tag (C29F4) rabbit mAb Sepharose bead conjugate, overnight, 4 °C; 25 mM Tris pH 7.5, 150 mM NaCl, 0.1% NP40; Western blot

binding (MYC::HPO-8 (C. elegans))	binding (ACS-4::FLAG (C. elegans))	binding (HA::PAQR-2 (C. elegans))	Molecule
binds	–	–	HA::PAQR-2 (from UniProt Q9N536) (receptor)
–	binds	binds	MYC::HPO-8 (enzyme, UniProt O17040 1-218) MSVQTYLVAYNVLQILGWSAILVKTVLGLANGLTWPQLYESVEFELKIFQTAAILEVIHAIVGLVRSPVGTTAMQVTSRVVLVWPILHLCSTARFSIGVPLLLVAWSVTEVIRYSFYALSVLKQPIPYFLLYLRYTLFYVLYPMGVSGELLTLFASLNEVDEKKILTLEMPNRLNMGISFWWVLIIAALSYIPGFPQLYFYMIGQRKKILGGGSKKKQ
